A: 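Whole-parasite assay of Trypanosoma brucei over 72 hours; the read-out is not stated. Concentration: 30 µM. Higher reads as stronger inhibition (inferred: compounds with an IC50 in retests scored well above the rest). Values scatter widely below zero; nearly all retest evidence comes from the higher of the two concentrations used. Size under these conditions: about 64,000 compounds, about 940 of them at 50% or above in at least one test.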
B: 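Cell assay of Leishmania donovani living inside macrophages; the read-out is not stated. Concentration: 30 µM. The record gives no direction; compounds that gave an IC50 in retests scored well above the rest, so higher reads as stronger inhibition. Of about 69,000 compounds tested this way, about 1,000 (1.5%) reached 50% or more in at least one test.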
C: 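Assay of Toxoplasma gondii numbers, read through their beta-galactosidase reporter with a colour substrate. Compounds at 10 µM. The record gives no direction; the compounds picked for IC50 retests had high values, so higher reads as fewer parasites. Of about 67,000 compounds tested this way, about 260 (0.38%) reached 50% or more in at least one test.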

The filed quantity is “Percent Effect” (%). The record does not define 0% and 100%; most values in the screen are far below 50% and negative numbers occur (in some assays of this library far below -100). This is an unselected part of the compounds tested. A dash means the value is not listed here; it may have been measured.

| # | SMILES | A | B | C |
|---|---|---|---|---|
| 1 | `[H][C@@]12C[C@H](C(=O)NCC(C)C)[C@@]([H])(CN(C(=O)NCCc3ccccc3)C1)O2` | 5.175% | 23.25% | 5.886% |
| 2 | `CN(C)c1cncc(C2CCN(C(=O)CO)CC2)n1` | 17.89% | -6.435% | -0.8328% |
| 3 | `COc1cc(C)ccc1OCC(=O)Nc1ccnc(OCCN(C)C)c1` | -85.28% | -22.02% | 4.518% |
| 4 | `CCc1nc(CN(C)CC(=O)N(C)C2CC2)cs1` | -19.11% | 16.25% | 1.617% |
| 5 | `COc1cccc(S(=O)(=O)CCNC2CCc3ncnn3C2)c1` (centres unmarked) | - | 14.3% | 6.644% |
| 6 | `O=C(O)C(F)(F)F.O=C(O)C(F)(F)F.[H][C@@]12CCN(Cc3ccncc3)C[C@]1([H])O[C@@H](C(=O)NCC1CCOCC1)C2` | 27.63% | 5.296% | 5.556% |
| 7 | `OCCCN1CCCC1c1ccc(Br)cc1` (centres unmarked) | -30.7% | 1.528% | 3.472% |
| 8 | `CCOCc1cnc2n1CCN(C(=O)c1ccccc1)C2C` (centres unmarked) | -17.22% | 32.25% | 2.737% |
| 9 | `CCC(C)NC(=O)c1cncc(Br)c1` (centres unmarked) | -12.62% | 28.61% | -3.349% |
| 10 | `CNC(=O)N1CCN(C(=O)N(C)C)CC2(CC(=O)N(C)C2)C1` (centres unmarked) | -12.77% | 4.515% | -14.67% |
| 11 | `[H][C@]12CC[C@@]3(N=C(C)N(CC(C)C)C3=O)[C@@]1([H])CN(S(=O)(=O)CC(C)C)C2` | - | -3.973% | -1.883% |
| 12 | `O=C1CCCC2=C1C(c1ccccc1Cl)Nc1nonc1N2` (centres unmarked) | - | 22% | -4.089% |
| 13 | `Cc1nc(C)c(CCN2CCC(Oc3ccccc3F)CC2)s1` | 55.32% | 47.66% | 4.661% |
| 14 | `[H][C@@]12COC[C@]1(c1nc(C)no1)CN(C(=O)Cc1ccsc1)C2` | -84.16% | 57.44% | 3.404% |
| 15 | `O=C(O)C(F)(F)F.[H][C@@]12CCN(Cc3ccccc3)C[C@@]1([H])O[C@@H](C(=O)NCC1CCOCC1)C2` | -4.918% | 4.473% | 15.16% |
| 16 | `CCOC(=O)c1sc(NC(=O)c2cc(=O)c(OC)c[nH]2)nc1C` | -37.54% | 3.85% | 5.157% |
| 17 | `CCNC(=O)CS(=O)(=O)NC1CCC(C)CC1` (centres unmarked) | -43.12% | 20.22% | -11.67% |
| 18 | `O=C(CN1CCOC(Cn2cccn2)C1)Nc1ccncc1` (centres unmarked) | 1.952% | 15.68% | -0.4632% |
| 19 | `O=C(CN1CCOc2ccc(Cl)cc21)NCc1ncc[nH]1` | -19.14% | 13.78% | -7.932% |
| 20 | `CCN(Cc1nc2c(cnn2C)c(=O)[nH]1)c1cc(C)cc(C)c1` | -21.13% | 1.623% | -6.627% |
| 21 | `c1cnc(-c2nc(CN3CCN(CC4CC4)CC3)cs2)nc1` | - | 15.36% | 5.005% |
| 22 | `COc1ccc(N2CCN(Cc3nc(CSC)no3)CC2=O)cc1` | -37.1% | 62.54% | -6.995% |
| 23 | `COc1c(C)cnc(CN2CCOC(CNc3cccnn3)C2)c1C` (centres unmarked) | -26.6% | -28.88% | -16.32% |
| 24 | `CN1CCN(CC2CC2)C(=O)c2cnc(N3CCCC3)nc21` | -21.29% | -39.64% | 0.07003% |
| 25 | `COc1cccc(S(=O)(=O)CCN2CCC3(CC2)OCCO3)c1` | 29.4% | 44.6% | -2.753% |
| 26 | `CC(NCc1cnc(C2CCC2)s1)c1cccc(-n2ccnc2)c1` (centres unmarked) | -30.07% | 12.69% | 14.63% |
| 27 | `CCC(CC)NC(=O)c1ccc2nnc(C3CCN(S(C)(=O)=O)C3)n2c1` (centres unmarked) | 2.218% | 35.94% | 3.853% |
| 28 | `CS(=O)(=O)CCC(=O)N(CCc1cccc(F)c1)C1CC1` | -12.9% | 0.929% | 0.6664% |
| 29 | `COCC[C@]1(O)CCN(C(=O)c2cnn(C)c2)C[C@H]1C` | -37.59% | 8.66% | -4.619% |
| 30 | `CSc1nc(N)c2c(n1)N=C1COC(O)=C1C2c1cccc(O)c1` (centres unmarked) | -5.02% | -3.777% | -18.22% |
| 31 | `COc1ccc(C(=O)N2C[C@@H](C(=O)O)[C@H](c3ccccc3)C2)c(C)c1` | -44.23% | -10.67% | 3.536% |
| 32 | `CN(C)Cc1nn(C)c2c1CN(C(=O)c1cccc(C#N)c1)C2` | -11.38% | 9.788% | -22.72% |
| 33 | `Cc1ccccc1C(C(=O)NCCN1CCC(CO)CC1)N(C)C` (centres unmarked) | -5.922% | 20.22% | -13.7% |
| 34 | `Cc1ccc(C(=O)N2CCc3ncc(Cn4cccn4)n3CC2)cn1` | -7.438% | 13.88% | 15.03% |
| 35 | `CC(C)N(C)Cc1cnc2n1CCN(Cc1cccc(C#N)c1)C2` | 6.453% | 12.49% | -0.8203% |
| 36 | `Cc1cc(C)n(CC(C)CNC(=O)NCc2csc(C)n2)n1` (centres unmarked) | -47.31% | -38.66% | -8.409% |
| 37 | `[H][C@@]12CS(=O)(=O)C[C@]1([H])N(CCCc1ccccc1)CCN2CC=C(C)C` | 5.213% | 14.31% | 0.05764% |
| 38 | `CC(C)Oc1ncccc1CNC(=O)N1CCOCC1` | -74.05% | 4.864% | 0.08878% |
| 39 | `[H][C@@]12CCN(C(C)=O)C[C@]1([H])[C@H](C(=O)Nc1cccnc1C)CCO2` | -3.46% | -12.97% | -6.138% |
| 40 | `CN1CCC(n2nc(Cc3cccs3)nc2-c2ccncc2)CC1` | -78.57% | 21.59% | 9.625% |
| 41 | `CN(C(=O)c1ccncc1)c1nnc(C2CCOC2)s1` (centres unmarked) | -5.161% | 12.11% | 2.836% |
| 42 | `CCCN(CC)C(=O)c1ncn2c1CN(C)S(=O)(=O)c1ccccc1-2` | -25% | 24.03% | -9.545% |
| 43 | `COc1ccc(S(=O)(=O)Nc2cnc(N(C)C)nc2)cc1` | -0.9325% | -13.29% | -8.947% |
| 44 | `O=C(NCc1nnc2ccccn12)N1CCOC(c2ccsc2)C1` (centres unmarked) | -5.331% | 13.6% | -7.119% |
| 45 | `CN(CCOc1ccccc1F)C1CCOC1=O` (centres unmarked) | -18.53% | 20.14% | 4.066% |

5 of the entries, repeated:

For CCc1nc(CN(C)CC(=O)N(C)C2CC2)cs1 the result was A: -19.11%; B: 16.25%; C: 1.617%.
For CN(C(=O)c1ccncc1)c1nnc(C2CCOC2)s1 (centres unmarked) the result was A: -5.161%; B: 12.11%; C: 2.836%.
For O=C(O)C(F)(F)F.O=C(O)C(F)(F)F.[H][C@@]12CCN(Cc3ccncc3)C[C@]1([H])O[C@@H](C(=O)NCC1CCOCC1)C2 the result was A: 27.63%; B: 5.296%; C: 5.556%.
For CC(C)Oc1ncccc1CNC(=O)N1CCOCC1 the result was A: -74.05%; B: 4.864%; C: 0.08878%.
For CN(C)c1cncc(C2CCN(C(=O)CO)CC2)n1 the result was A: 17.89%; B: -6.435%; C: -0.8328%.

From ChEMBL document CHEMBL3988442, “University of Dundee, Small-Polar-MMV Screening Library” (2021).